Experimental data as given in article PMC10891134, “Bacteria employ lysine acetylation of transcriptional regulators to adapt gene expression to cellular metabolism” (Nature Communications, 2024).

What was measured:
RutR AcK11 K11AcK [1] = biological target: RutR AcK11 K11AcK (UniProt P0ACU2); test: SPR; details: SPR: 100 mM potassium phosphate pH 6.4, 300 mM NaCl, 0.05% Tween20, 25 C; recombinant protein; protein details: His6
RutR AcK7 K7AcK [2] = biological target: RutR AcK7 K7AcK (UniProt P0ACU2); test: SPR; details: SPR: 100 mM potassium phosphate pH 6.4, 300 mM NaCl, 0.05% Tween20, 25 C; recombinant protein; protein details: His6
RutR AcK11 K11AcK [3] = biological target: RutR AcK11 K11AcK (UniProt P0ACU2); test: EMSA; details: EMSA: 20 mM Tris-HCl pH 7.5, 100 mM KCl, 2 mM DTT, 10% glycerol, 25 nM DNA, 30 C; recombinant protein; protein details: His6
RutR AcK150 K150AcK = RutR AcK150 K150AcK (UniProt P0ACU2); test: EMSA; details: EMSA: 20 mM Tris-HCl pH 7.5, 100 mM KCl, 2 mM DTT, 10% glycerol, 25 nM DNA, 30 C; recombinant protein; protein details: His6
RutR AcK21 K21AcK = RutR AcK21 K21AcK (UniProt P0ACU2); test: EMSA; details: EMSA: 20 mM Tris-HCl pH 7.5, 100 mM KCl, 2 mM DTT, 10% glycerol, 25 nM DNA, 30 C; recombinant protein; protein details: His6
RutR AcK7 K7AcK [4] = biological target: RutR AcK7 K7AcK (UniProt P0ACU2); test: EMSA; details: EMSA: 20 mM Tris-HCl pH 7.5, 100 mM KCl, 2 mM DTT, 10% glycerol, 25 nM DNA, 30 C; recombinant protein; protein details: His6
RutR AcK95 K95AcK = RutR AcK95 K95AcK (UniProt P0ACU2); test: EMSA; details: EMSA: 20 mM Tris-HCl pH 7.5, 100 mM KCl, 2 mM DTT, 10% glycerol, 25 nM DNA, 30 C; recombinant protein; protein details: His6
RutR K52Q = biological target: T1, RutR K52Q (UniProt P0ACU2); test: EMSA; details: EMSA: 20 mM Tris-HCl pH 7.5, 100 mM KCl, 2 mM DTT, 10% glycerol, 25 nM DNA, 30 C; recombinant protein; protein details: His6
T1 sequence (looked up, limits assumed): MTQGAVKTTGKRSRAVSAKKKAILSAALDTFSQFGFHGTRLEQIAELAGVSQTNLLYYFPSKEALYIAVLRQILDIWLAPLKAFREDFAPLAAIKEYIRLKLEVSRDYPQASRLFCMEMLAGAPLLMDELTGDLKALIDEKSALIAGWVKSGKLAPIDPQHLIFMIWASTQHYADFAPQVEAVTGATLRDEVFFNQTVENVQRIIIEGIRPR

Sequence	binding result (RutR AcK11 K11AcK [1])	binding result (RutR AcK7 K7AcK [2])	binding result (RutR AcK11 K11AcK [3])	binding result (RutR AcK150 K150AcK)	binding result (RutR AcK21 K21AcK)	binding result (RutR AcK7 K7AcK [4])	binding result (RutR AcK95 K95AcK)	binding result (RutR K52Q)
GTTTTAATGTAAATTTTGACCATTTGGTCCACTTTTTTCTGCTCGT (double strand) [biotin-boxcarA]	binds more weakly	binds more weakly						
GTTTTAATGTAAATTTTGACCATTTGGTCCACTTTTTTCTGCTCGT (double strand) [boxcarA]			binds	binds	binds	binds	binds	binds more weakly
GTTTTATGTGCAACTGTTTTGACCGTTTAGTCCACTTTTTACCAGATATTTTAG (double strand) [boxrutA]			binds	binds	binds	binds	binds	binds more weakly

Construct, isoform or probe ends are uncertain for at least one entry. For some assays here: Weaker means in comparison with the reference protein, sequence or condition of that experiment. For some assays here: At least one verdict was read from the data and is not stated in words by the source. For some assays here: Tags and fusion partners may be left off the protein sequences shown.
